Laboratory results reported in article PMC7980560.
No constants are given. Whether binding was seen depends on the method and setting. Binding seen in cells or lysates may run through a third protein. Binding calls can cover weak binding; strength is not graded here. Sequences can lack the tags named with a protein.

Molecular target: T1, HA-tagged Noggin-1 (wild type) (zebrafish) (UniProt Q9W741)
T1 sequence: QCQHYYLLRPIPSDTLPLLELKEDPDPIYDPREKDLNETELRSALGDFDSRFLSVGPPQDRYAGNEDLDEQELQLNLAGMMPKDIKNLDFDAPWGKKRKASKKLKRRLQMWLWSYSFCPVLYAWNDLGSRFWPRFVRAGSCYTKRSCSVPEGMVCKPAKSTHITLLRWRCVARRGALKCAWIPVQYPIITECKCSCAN
Experiment: co-IP; GFP-tagged Zisp and HA-tagged Noggin (nog1, nog2, nog3) co-transfected (text: RPE1 cells; legend: embryos); immunoprecipitation with anti-HA, western blot for GFP; lysis in 50 mM Tris-HCl pH 7.5, 150 mM NaCl, 1% Triton

**Q.** For “GFP-tagged Zisp (zebrafish DHHC palmitoyl acyltransferase Zisp/Zdhhc8) (enzyme)”, which binding is on record?
**A.** binds
